PubChem BioAssay AID2517 (National Center for Advancing Translational Sciences (NCATS), 2010)
In all, about 350,000 compounds went through this assay and about 1,200 (0.34%) were called active. The shares of active, inactive and inconclusive entries below differ from those in the screen. The call rests on the fitted dose curve; in most records, active means well fitted inhibition curve with a large enough effect; inconclusive means small, poorly fitted or top-dose-only effect; inactive means no such curve, though single readings can be large or run the other way. Where the call is inconclusive, the potency comes from a doubtful curve fit.

Amino acid sequences for entries named in this document (tags omitted).
UniProt P27695, whole entry, looked up: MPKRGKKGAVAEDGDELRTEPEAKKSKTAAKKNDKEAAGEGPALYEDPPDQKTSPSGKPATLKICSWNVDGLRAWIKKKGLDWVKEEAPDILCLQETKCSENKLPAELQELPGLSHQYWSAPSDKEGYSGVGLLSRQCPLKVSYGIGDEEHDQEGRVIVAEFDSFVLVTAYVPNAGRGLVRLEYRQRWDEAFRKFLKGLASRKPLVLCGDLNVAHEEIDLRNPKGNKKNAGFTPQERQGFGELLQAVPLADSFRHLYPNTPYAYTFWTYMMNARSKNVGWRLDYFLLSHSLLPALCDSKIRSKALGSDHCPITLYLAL

biological target: DNA repair nuclease/redox regulator APEX1 (Homo sapiens) (UniProt P27695); test: qHTS Assay for Inhibitors of the Human Apurinic/apyrimidinic Endonuclease 1 (APE1); conditions: recombinant APE1, TAMRA/BHQ-2 abasic DNA cleavage fluorescence; activity change, negative = inhibition: at 65.8 µM (top of the series); further: nearly all actives have a fitted effect of over 55% in size;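 on activity change, negative = inhibition: plate controls were vehicle for no effect and reference inhibitor for full effect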
From the text: The apurinic/apyrimidinic endonuclease APE1 is the primary mammalian enzyme responsible for the removal of abasic (or AP) sites in DNA and functions centrally in the base excision DNA repair (BER) pathway. […] Thus, targeting APE1 could improve the efficacy of current treatment paradigms by promoting selective sensitization or protection of diseased and normal cells, respectively.
Inhibition of APE1 activity was screened by utilizing double-stranded short substrate containing tetrahydrofuran (THF) abasic site labeled with rhodamine-type fluorophore (TAMRA) at the 5'-end and with non-fluorescent Black Hole Quencher-2 (BHQ-2) at the opposing 3'-end. An increase in the fluorescence intensity due to incision of the abasic site by APE1 was used to measure the enzyme activity.
NIH Chemical Genomics Center [NCGC]
NIH Molecular Libraries Probe Centers Network [MLPCN]
Assay Provider: David M. Wilson, III, National Institute on Aging, NIH
Three uL of enzyme solution (0.75 nM APE1 final concentration) was dispensed to 1536-well Greiner black solid bottom plates. […] The plates were incubated for 15 min at room temperature, and then 1 uL of substrate solution (50 nM final concentration of TAMRA/BHQ-2) was added to start the reaction. The plates were immediately transferred into ViewLux High-throughput CCD imager (Perkin-Elmer) in order to measure the reaction progress in kinetic mode (three reads every 60 seconds) using 525 nm excitation and 598 nm emission fluorescence protocol. The fluorescence intensity difference between the third and the first time points was used to compute reaction progress. Results were normalized to buffer only columns and NSC13755 positive controls and negative control DMSO treated wells.
Potency means the concentration at half of the fitted maximal effect.

Q: For `Cc1ccc2cc(CN(CCN3CCCC3)C(=O)Nc3ccc(F)cc3)c(=O)[nH]c2c1C`, which Potency is on record?
A: inconclusive: 7.08 µM [inhibitor, single point]

Q: `CCC1(CC)NC(=O)N(CC(=O)OCC(=O)Nc2ccc(F)c(F)c2F)C1=O` was tested. Which Potency did it give?
A: inconclusive: 28.2 µM [inhibitor, single point]

Q: How did the “activity change, negative = inhibition” value turn out when `Cc1ccccc1OCC(=O)N/N=C/c1ccc([N+](=O)[O-])o1` was run?
A: inactive: 1.12%

Q: `Cc1onc(-c2c(F)cccc2Cl)c1C(=O)OCC(=O)c1c[nH]c2ccccc12` was tested. Which Potency did it give?
A: inconclusive: 44.7 µM [inhibitor, single point]

Q: With `Cc1cc(C)cc(OCC(=O)Nc2nonc2NC(=O)COc2cc(C)cc(C)c2)c1` as the compound, how does the “activity change, negative = inhibition” value read?
A: inactive: 4%

Q: `O=c1cc(CNc2ccc(Br)cc2)nc2sccn12` was tested. Which Potency did it give?
A: inconclusive: 25.1 µM [inhibitor, single point]

Q: With `NNC(=O)C1CC(O)CN1S(=O)(=O)c1ccc2ccccc2c1` (stereo unspecified) as the compound, how does the activity change, negative = inhibition read?
A: inconclusive: 2.98% [inhibitor]

Q: Which “activity change, negative = inhibition” value does the source give for `N#Cc1ccc(/C=C2\CCCCn3c2nc2cc(C(=O)O)ccc2c3=O)cc1` here?
A: inactive: 26.7%

Q: `O=C1COc2ccc(C(=O)COC(=O)/C=C/c3ccc(Br)o3)cc2N1` was tested. Which Potency did it give?
A: inconclusive: 4.74 µM [inhibitor, partial curve]

Q: Which “activity change, negative = inhibition” value does the source give for `Cc1ccc(C(c2ccc(C)o2)c2cccc([N+](=O)[O-])c2O)o1` here?
A: inactive: 6.96%

Q: Which Potency does the source give for `CCOC(=O)/C(C(=O)Nc1ccc(Cl)cc1Cl)=C1/NC(C)(C)Cc2ccccc21` here?
A: inconclusive: 39.8 µM [inhibitor, single point]

Q: `NC(=O)c1cc2cc(Cl)ccc2oc1=Nc1cccc(C(F)(F)F)c1` was tested. Which Potency did it give?
A: inconclusive: 7.08 µM [inhibitor, single point]

Q: Which “activity change, negative = inhibition” value does the source give for `COc1ncc2nc(-c3ccccc3)c(=O)n(-c3ccccc3)c2n1` here?
A: inactive: -6.46%

Q: Which “activity change, negative = inhibition” value does the source give for `COc1cc(/C=N/NC(=O)c2ccc(CN3C(=O)c4cccc5cccc3c45)cc2)cc(OC)c1O` here?
A: inactive: -3.1%

Q: How did the Potency turn out when `N#CC1=C(N)n2c(s/c(=C\c3ccco3)c2=O)=C(C#N)C1c1ccco1` (stereo unspecified) was run?
A: active: 7.08 µM

Q: With `CCCN=Cc1sc2ccc(OCC)cc2c1O` as the compound, how does the Potency read?
A: inconclusive: 0.02 µM [inhibitor, full curve, poor fit]

Q: How did the Potency turn out when `CCOc1nc(N=C(N)N)nc2c(C)cccc12` was run?
A: inconclusive: 31.6 µM [inhibitor, single point]

Q: How did the Potency turn out when `CCC(Oc1ccccc1)C(=O)NCc1ccc(S(N)(=O)=O)cc1` (stereo unspecified) was run?
A: inconclusive: 0.1 µM [inhibitor, full curve]

Q: `O=C(CCCc1nc2ccccc2s1)NC1CCOC1=O` (stereo unspecified) was tested. Which “activity change, negative = inhibition” value did it give?
A: inactive: -3.21%

Q: With `Oc1ccc(O)c2c(O)cccc12` as the compound, how does the Potency read?
A: active: 1.78 µM

Q: For `CSc1nc(C)cc(OCC(=O)N/N=C/c2ccccc2O)n1`, which “activity change, negative = inhibition” value is on record?
A: inactive: 8.45%
